Measured values as given in PMC6667500.
Results are given in words; binding and its absence hold for the method and conditions named. Binding seen in cells or lysates may run through a third protein. Some results given as binding are weak or reduced against the parent protein; the word gives no strength.

Sequences of proteins named here, by UniProt entry; tags and fusion partners are left off.
UniProt Q9H583: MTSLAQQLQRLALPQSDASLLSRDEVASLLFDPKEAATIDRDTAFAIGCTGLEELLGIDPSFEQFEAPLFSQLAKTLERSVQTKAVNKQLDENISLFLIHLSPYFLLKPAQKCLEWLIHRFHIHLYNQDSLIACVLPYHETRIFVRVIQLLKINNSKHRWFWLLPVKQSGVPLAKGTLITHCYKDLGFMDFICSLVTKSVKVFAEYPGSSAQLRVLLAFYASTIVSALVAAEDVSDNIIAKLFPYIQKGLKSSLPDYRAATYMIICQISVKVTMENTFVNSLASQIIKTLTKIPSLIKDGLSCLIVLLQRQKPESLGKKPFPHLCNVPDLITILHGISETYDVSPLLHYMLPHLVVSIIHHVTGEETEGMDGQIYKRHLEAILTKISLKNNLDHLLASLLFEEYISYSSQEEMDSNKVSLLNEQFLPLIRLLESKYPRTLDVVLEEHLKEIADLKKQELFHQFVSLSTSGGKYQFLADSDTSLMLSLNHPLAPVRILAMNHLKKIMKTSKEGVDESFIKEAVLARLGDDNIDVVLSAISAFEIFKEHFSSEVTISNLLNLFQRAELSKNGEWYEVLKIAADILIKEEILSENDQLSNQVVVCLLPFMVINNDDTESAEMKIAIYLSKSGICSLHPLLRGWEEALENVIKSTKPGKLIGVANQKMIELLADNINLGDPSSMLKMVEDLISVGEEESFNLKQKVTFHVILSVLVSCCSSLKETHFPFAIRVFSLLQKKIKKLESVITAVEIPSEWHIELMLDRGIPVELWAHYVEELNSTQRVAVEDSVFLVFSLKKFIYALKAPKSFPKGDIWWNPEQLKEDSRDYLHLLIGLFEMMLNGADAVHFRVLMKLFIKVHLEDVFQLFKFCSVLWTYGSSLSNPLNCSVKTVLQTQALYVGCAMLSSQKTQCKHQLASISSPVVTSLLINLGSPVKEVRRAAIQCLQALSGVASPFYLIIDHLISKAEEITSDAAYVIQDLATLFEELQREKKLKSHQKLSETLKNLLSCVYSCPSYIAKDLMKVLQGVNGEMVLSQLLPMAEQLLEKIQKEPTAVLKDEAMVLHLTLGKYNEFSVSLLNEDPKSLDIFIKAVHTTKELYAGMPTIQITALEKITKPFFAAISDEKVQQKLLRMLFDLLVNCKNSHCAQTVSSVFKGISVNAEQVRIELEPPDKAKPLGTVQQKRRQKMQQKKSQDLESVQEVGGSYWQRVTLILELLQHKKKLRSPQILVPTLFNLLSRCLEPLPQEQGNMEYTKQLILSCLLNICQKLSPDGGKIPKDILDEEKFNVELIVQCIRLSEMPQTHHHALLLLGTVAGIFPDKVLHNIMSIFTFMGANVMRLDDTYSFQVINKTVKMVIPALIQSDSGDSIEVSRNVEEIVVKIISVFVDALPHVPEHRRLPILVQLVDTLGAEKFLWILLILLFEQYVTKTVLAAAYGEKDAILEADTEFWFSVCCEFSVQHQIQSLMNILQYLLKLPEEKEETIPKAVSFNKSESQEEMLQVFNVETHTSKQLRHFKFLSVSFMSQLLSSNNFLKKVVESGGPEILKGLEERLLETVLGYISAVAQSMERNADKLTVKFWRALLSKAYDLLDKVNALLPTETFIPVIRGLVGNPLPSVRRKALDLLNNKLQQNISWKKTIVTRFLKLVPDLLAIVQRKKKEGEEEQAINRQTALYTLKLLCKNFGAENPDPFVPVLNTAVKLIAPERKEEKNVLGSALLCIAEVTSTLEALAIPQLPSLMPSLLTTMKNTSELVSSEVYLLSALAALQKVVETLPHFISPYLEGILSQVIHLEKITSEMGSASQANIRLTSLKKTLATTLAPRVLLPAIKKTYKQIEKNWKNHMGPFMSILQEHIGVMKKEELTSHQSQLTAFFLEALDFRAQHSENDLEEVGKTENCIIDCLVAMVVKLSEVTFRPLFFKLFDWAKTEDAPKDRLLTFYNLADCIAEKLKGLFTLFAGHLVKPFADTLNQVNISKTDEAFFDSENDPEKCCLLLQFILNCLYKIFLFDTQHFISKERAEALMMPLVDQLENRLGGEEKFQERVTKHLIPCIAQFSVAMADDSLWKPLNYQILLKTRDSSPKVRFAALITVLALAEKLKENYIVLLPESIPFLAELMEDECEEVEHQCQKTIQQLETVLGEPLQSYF

T1: endogenous AATF (human (endogenous in HEK 293T)) (UniProt Q9NY61)
T1 sequence: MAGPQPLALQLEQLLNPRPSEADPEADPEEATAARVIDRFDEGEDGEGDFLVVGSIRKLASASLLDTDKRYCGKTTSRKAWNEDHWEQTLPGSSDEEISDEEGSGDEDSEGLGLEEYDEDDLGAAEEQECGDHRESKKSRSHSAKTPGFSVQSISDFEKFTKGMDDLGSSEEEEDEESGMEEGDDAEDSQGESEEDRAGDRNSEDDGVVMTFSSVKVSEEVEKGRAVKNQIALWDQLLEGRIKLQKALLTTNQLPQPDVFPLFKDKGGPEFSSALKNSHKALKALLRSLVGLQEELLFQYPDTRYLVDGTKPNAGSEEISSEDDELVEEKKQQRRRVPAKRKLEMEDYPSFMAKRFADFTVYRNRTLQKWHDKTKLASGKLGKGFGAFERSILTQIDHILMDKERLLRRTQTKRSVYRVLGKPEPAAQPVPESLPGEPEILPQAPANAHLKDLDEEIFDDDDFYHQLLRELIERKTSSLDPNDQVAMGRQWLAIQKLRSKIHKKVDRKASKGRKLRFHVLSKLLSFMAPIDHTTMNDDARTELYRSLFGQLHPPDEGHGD

B1: rRNA 2'-O-methyltransferase fibrillarin (FBL) (protein, UniProt P22087 1-321)
chain: MKPGFSPRGGGFGGRGGFGDRGGRGGRGGFGGGRGRGGGFRGRGRGGGGGGGGGGGGGRGGGGFHSGGNRGRGRGGKRGNQSGKNVMVEPHRHEGVFICRGKEDALVTKNLVPGESVYGEKRVSISEGDDKIEYRAWNPFRSKLAAAILGGVDQIHIKPGAKVLYLGAASGTTVSHVSDIVGPDGLVYAVEFSHRSGRDLINLAKKRTNIIPVIEDARHPHKYRMLIAMVDVIFADVAQPDQTRIVALNAHTFLRNGGHFVISIKANCIDSTASAEAVFASEVKKMQQENMKPQEQLTLEPYERDHAVVVGVYRPPPKVKN
B2: rRNA methyltransferase Nucleolar Protein 2 Homolog (NOP2) (protein, UniProt P46087 1-812)
chain: MGRKLDPTKEKRGPGRKARKQKGAETELVRFLPAVSDENSKRLSSRARKRAAKRRLGSVEAPKTNKSPEAKPLPGKLPKGISAGAVQTAGKKGPQSLFNAPRGKKRPAPGSDEEEEEEDSEEDGMVNHGDLWGSEDDADTVDDYGADSNSEDEEEGEALLPIERAARKQKAREAAAGIQWSEEETEDEEEEKEVTPESGPPKVEEADGGLQINVDEEPFVLPPAGEMEQDAQAPDLQRVHKRIQDIVGILRDFGAQREEGRSRSEYLNRLKKDLAIYYSYGDFLLGKLMDLFPLSELVEFLEANEVPRPVTLRTNTLKTRRRDLAQALINRGVNLDPLGKWSKTGLVVYDSSVPIGATPEYLAGHYMLQGASSMLPVMALAPQEHERILDMCCAPGGKTSYMAQLMKNTGVILANDANAERLKSVVGNLHRLGVTNTIISHYDGRQFPKVVGGFDRVLLDAPCSGTGVISKDPAVKTNKDEKDILRCAHLQKELLLSAIDSVNATSKTGGYLVYCTCSITVEENEWVVDYALKKRNVRLVPTGLDFGQEGFTRFRERRFHPSLRSTRRFYPHTHNMDGFFIAKFKKFSNSIPQSQTGNSETATPTNVDLPQVIPKSENSSQPAKKAKGAAKTKQQLQKQQHPKKASFQKLNGISKGADSELSTVPSVTKTQASSSFQDSSQPAGKAEGIREPKVTGKLKQRSPKLQSSKKVAFLRQNAPPKGTDTQTPAVLSPSKTQATLKPKDHHQPLGRAKGVEKQQLPEQPFEKAAFQKQNDTPKGPQPPTVSPIRSSRPPPAKRKKSQSRGNSQLLLS

These molecules were tested against T1, endogenous AATF (human (endogenous in HEK 293T)) (assay: co-IP; endogenous AATF precipitated with anti-AATF antibody on Protein G Dynabeads from HEK 293T lysate (modified RIPA buffer, Turbo DNase treated), overnight; rabbit IgG as negative control; western blot; 3 biological replicates).
In the case of “ribosome biogenesis factor HEAT Repeat-Containing Protein 1 (HEATR1) (from UniProt Q9H583 1-2144)”, the binding is reported as “binds”. With B1 the binding was “binds”. In the case of B2, the binding is reported as “binds”.
